Measurements as given in PubChem BioAssay AID504834 (National Center for Advancing Translational Sciences (NCATS), 2011).
About 22,000 (6.9%) of roughly 320,000 compounds were called active. Inconclusive results, whose numbers are uncertain, are shown with a selection of clear calls. Calls come from the whole dose curve; as a rule, active = well fitted inhibition curve with a large enough effect; inconclusive = small, poorly fitted or top-dose-only effect, or another doubt; inactive = no such curve, though single readings can be large or run the other way. Potencies beside an inconclusive call are fits to weak or partial responses and may not hold up.
% is set by controls: 0 for no effect and ±100 for the full control effect; potency is the fitted concentration of half-maximal effect.

Experiment: Primary qHTS for delayed death inhibitors of the malarial parasite plastid, 96 hour incubation
Conditions: P. falciparum luciferase reporter growth; series mostly up to 28.7 µM; activity change, negative = inhibition: at the top concentration
Procedure, shortened: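 Cell-based qHTS: luciferase-tagged P. falciparum in erythrocytes (2% hematocrit, 0.05% parasitemia final) incubated with compounds for 96 hours, 37 C, 5% CO2; luciferase detection reagent then added and luminescence measured.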
For `Cc1ccc(C)c(N(CC(=O)NCc2ccco2)C(=O)CNS(=O)(=O)c2ccccc2)c1`, the Potency was inconclusive: 13.1 µM [inhibitor, single point]. With `Cn1c(=O)c2ccccc2n2c(CCl)nnc12` the Potency was inconclusive: 10.4 µM [inhibitor, partial curve]. In the case of `O=S(=O)(Cc1noc(-c2ccc(OC(F)(F)F)cc2)n1)c1ccc(F)cc1`, the “activity change, negative = inhibition” value is reported as inactive: -0.67%. In the case of `CCC(=O)Nc1ccc(C(=O)NNC(=O)C(c2ccccc2)c2ccccc2)cc1`, the Potency is reported as inconclusive: 6.57 µM [inhibitor, partial curve, poor fit]. For `CCOc1cc(NC(=O)c2cccs2)c(OCC)cc1NC(=O)c1ccccn1`, the Potency was inconclusive: 18.5 µM [inhibitor, single point]. For `CCN(CC)S(=O)(=O)c1ccc(Cl)c(C(=O)NCc2ccco2)c1`, the Potency was inconclusive: 5.86 µM [inhibitor, partial curve, poor fit]. With `O=C1CCCCN1CCCC(=O)N1CCCC(Nc2ccc(F)cc2)C1` (configuration not stated) the “activity change, negative = inhibition” value was inactive: 1.89%. With `C/C(CC(=O)Nc1ccc(Cl)cc1Cl)=N\NC(=O)C(=O)N1CCCC1` the “activity change, negative = inhibition” value was inactive: 25.3%. In the case of `O=C(CN1CCN(Cc2ccccc2)CC1)N/N=C\C=C/c1ccco1`, the “activity change, negative = inhibition” value is reported as inactive: 15.4%. In the case of `CC1C/C(=C\c2ccccc2[N+](=O)[O-])c2nc3ccccc3c(C(=O)O)c2C1` (configuration not stated), the Potency is reported as inconclusive: 11.7 µM [inhibitor, single point]. For `Cc1ccc(Nc2nc3ccccc3[nH]2)nc1`, the Potency was inconclusive: 2.33 µM [inhibitor, full curve, poor fit]. With `COc1cc2cc(CN(CCc3ccccc3C)C(=S)NCCCN3CCOCC3)c(=O)[nH]c2cc1OC` the “activity change, negative = inhibition” value was inactive: 322%. In the case of `CN(Cc1ccccc1)C(=O)CCC1CCN(S(C)(=O)=O)CC1`, the Potency is reported as active: 11.7 µM. For `CC1(C(=O)NCC2CC2)C=CC2(CCCCC2)N1C(=O)c1ccccc1` (configuration not stated), the Potency was inconclusive: 0.37 µM [inhibitor, full curve, poor fit]. For `O=C(CSc1nc(-c2ccccc2)nc2c1Cc1ccccc1O2)Nc1ccc(C(=O)O)cc1`, the Potency was inconclusive: 10.4 µM [inhibitor, single point]. For `C=C(C)c1cccc(C(C)(C)NC(=O)Nc2ccc(OC)cc2)c1`, the Potency was inconclusive: 4.65 µM [inhibitor, partial curve]. With `Cc1cccc(-n2nnc(C(=O)Nc3ccc(F)cc3)c2N)c1` the “activity change, negative = inhibition” value was inactive: 9.58%. For `Cc1ccc2c(c1)C1CN(C)CCC1N2S(=O)(=O)c1ccc(C#N)cc1` (configuration not stated), the Potency was inconclusive: 18.5 µM [inhibitor, single point]. With `N#Cc1nc(-c2ccc(F)cc2)oc1N1CCCC1` the Potency was active: 0.294 µM. For `CC(NC(=O)C(=O)c1cn(CC(=O)N2CCOCC2)c2ccccc12)c1ccccc1` (configuration not stated), the Potency was inconclusive: 18.5 µM [inhibitor, single point]. For `CC1CC(C)CN(S(=O)(=O)c2cccc(C(=O)N3CCN(c4ccc(F)cc4)CC3)c2)C1` (configuration not stated), the Potency was inconclusive: 3.7 µM [inhibitor, full curve]. With `CSc1ccccc1C(=O)NC(C)c1ccc(-n2ccnc2)cc1` (configuration not stated) the Potency was inconclusive: 18.5 µM [inhibitor, single point]. For `O=C(NCc1ccco1)C(Cc1ccccc1)NS(=O)(=O)c1cccc2nsnc12` (configuration not stated), the Potency was inconclusive: 0.928 µM [inhibitor, partial curve]. For `O=C(C(=O)N1CCN(c2cccc(Cl)c2)CC1)c1cn(CC(=O)N2CCOCC2)c2ccccc12`, the Potency was inconclusive: 18.5 µM [inhibitor, partial curve, poor fit]. In the case of `CCOC(=O)c1c(NC(=O)CC(C)C)sc(C(C)=O)c1C`, the Potency is reported as inconclusive: 18.5 µM [inhibitor, single point]. In the case of `Cc1ccc(N2CC(C(=O)N3CCC(C(=O)Nc4cccc(Br)c4)CC3)CC2=O)cc1` (configuration not stated), the Potency is reported as inconclusive: 18.5 µM [inhibitor, single point]. In the case of `CCC(C)(C(=O)NC1CCCC1)N(C(=O)c1ccccn1)c1ccc(C)cc1` (configuration not stated), the Potency is reported as inconclusive: 0.117 µM [inhibitor, full curve, poor fit]. With `O=C(NCc1cccnc1)C(=O)NCC1OCCN1S(=O)(=O)c1ccc(F)cc1` (configuration not stated) the Potency was inconclusive: 18.5 µM [inhibitor, single point]. For `O=C(CSc1nc2c([nH]c3ccccc32)c(=O)n1-c1ccc(F)cc1)NCc1ccco1`, the Potency was inconclusive: 18.5 µM [inhibitor, partial curve, poor fit]. For `CS(=O)(=O)N1CCN(C(=O)c2ccc(Cl)s2)CC1`, the “activity change, negative = inhibition” value was inactive: 10.9%. For `O=C(N/N=C1\C/C(=N\NC(=O)c2ccncc2)c2ccccc21)c1ccncc1`, the Potency was inconclusive: 9.28 µM [inhibitor, partial curve, poor fit]. With `CCc1ccc2c(CC(=O)NNC(=O)c3ccncc3)coc2c1` the Potency was inconclusive: 1.47 µM [inhibitor, partial curve, poor fit]. In the case of `Cc1c(C(=O)O)cccc1-n1c(C)cc(/C=N/NC(=O)c2cc3ccccc3o2)c1C`, the “activity change, negative = inhibition” value is reported as inactive: 14.7%. With `CC(CC(=O)NC1CCCC1)c1ccccc1` (configuration not stated) the Potency was inconclusive: 0.117 µM [inhibitor, full curve, poor fit]. For `Cc1nc2ccccc2c(=O)n1CCCO`, the Potency was inconclusive: 18.5 µM [inhibitor, single point]. For `Cc1ccc(C(c2c(C)nn(-c3ccccc3)c2N)c2c(C)nn(-c3ccccc3)c2N)cc1`, the Potency was active: 13.1 µM. In the case of `COc1ccc(-c2nc(CS(=O)(=O)CC(=O)NCCCc3ccccc3)c(C)o2)cc1`, the Potency is reported as inconclusive: 18.5 µM [inhibitor, single point]. For `COC(=O)c1ccc(NC(=O)c2cccc(Cl)c2)o1`, the “activity change, negative = inhibition” value was inactive: 56.1%. With `O=C(NCCn1cc(SCC(=O)N2CCOCC2)c2ccccc21)c1c(F)cccc1F` the Potency was inconclusive: 0.233 µM [inhibitor, full curve, poor fit]. With `Nc1nonc1-n1nnc(C(=O)N/N=C/c2ccc(OCc3ccccc3)cc2)c1COc1ccc(F)cc1` the Potency was inconclusive: 18.5 µM [inhibitor, single point]. In the case of `CCCc1cc(=O)[nH]c(SCC(=O)N2CCc3ccccc3C2)n1`, the “activity change, negative = inhibition” value is reported as inactive: -27.7%. For `O=[N+]([O-])c1ccc(S(=O)(=O)Nc2ccc(-c3ccc(N4CCCC4)nn3)cc2)cc1`, the Potency was inconclusive: 1.65 µM [inhibitor, full curve]. For `COC(=O)c1ccc(-c2noc(CN(Cc3ccccn3)CC3CCCO3)n2)cc1` (configuration not stated), the Potency was inconclusive: 5.86 µM [inhibitor, partial curve, poor fit]. For `COc1ccc([C@H]2CC(=O)C=C(c3cc(C=O)ccc3OC)C2)cc1`, the “activity change, negative = inhibition” value was inactive: -7.77%. For `Cc1ccc(NC(=O)c2cc(S(=O)(=O)N(C)C)ccc2N2CCCC2)cc1F`, the “activity change, negative = inhibition” value was inactive: 92.1%. With `COc1cc(Cl)c(NC2=CC(=O)C(=O)c3ccccc32)c(OC)c1` the Potency was inconclusive: 0.828 µM [inhibitor, full curve, poor fit]. In the case of `CCOC(=O)C(C)Sc1ncnc2nc[nH]c12` (configuration not stated), the Potency is reported as inconclusive: 10.4 µM [inhibitor, single point]. With `COc1ccc(NC(=S)Nc2cccc(C(C)=O)c2)cc1OC` the Potency was active: 11.7 µM. With `CCOc1ccc(CCNC(=O)COC(=O)CCC(=O)c2cccs2)cc1OCC` the “activity change, negative = inhibition” value was inactive: -25.2%. For `O=c1cc(CSc2nc3ccccc3c(=O)[nH]2)c2ccc(O)cc2o1`, the “activity change, negative = inhibition” value was inactive: -18.2%. For `Cc1onc(-c2c(Cl)cccc2Cl)c1C(=O)N=C(N)N1CC(C)OC(C)C1` (configuration not stated), the Potency was active: 11.7 µM. For `COc1cc(NC(=O)CSc2nc3[nH]ncc3c(=O)n2-c2ccccc2C)cc(OC)c1OC`, the “activity change, negative = inhibition” value was inactive: 6.05%. For `Cc1ccc(NC(=O)C2C3C=CC4(O3)C2C(=O)N(CCN2CCOCC2)C4C(=O)NC2CCCCC2)cc1C` (configuration not stated), the Potency was inconclusive: 10.4 µM [inhibitor, partial curve]. In the case of `CC1(c2ccc(Cl)cc2Cl)NC(=O)N(CC(=O)NC2CCCCC2)C1=O` (configuration not stated), the Potency is reported as inconclusive: 14.7 µM [inhibitor, partial curve, poor fit]. For `CCOC(=O)c1c(C)n(Cc2ccco2)c2ccc(O)cc12`, the “activity change, negative = inhibition” value was inactive: 2.61%. For `CC1(C)CC(=O)C2=C(C1)NC1=C(C(=O)c3ccccc31)C2c1ccc(O)cc1` (configuration not stated), the Potency was inconclusive: 16.5 µM [inhibitor, partial curve, poor fit]. For `Nc1ccc(-c2nc3nc(N)nc(N)c3nc2-c2ccc(N)cc2)cc1`, the Potency was inconclusive: 8.28 µM [inhibitor, partial curve, poor fit]. With `COc1cc(C(=O)Nc2ccc(C(=O)O)cc2)ccc1OC(C)=O` the Potency was active: 2.33 µM. In the case of `COc1ccc(S(=O)(=O)NNC(=O)Nc2ccc(C)cc2C)c(OC)c1`, the “activity change, negative = inhibition” value is reported as inactive: -16.4%. For `CCCn1nc(NC(=O)c2cccs2)c2cc3ccccc3nc21`, the Potency was inconclusive: 3.7 µM [inhibitor, single point]. In the case of `c1coc(-c2nc(-c3ccncc3)no2)c1`, the Potency is reported as inconclusive: 2.62 µM [inhibitor, single point]. In the case of `COc1ccc(C2c3[nH]c4ccccc4c3C[C@H]3C(=O)N(c4ccccc4C(=O)N4CCC[C@@H]4C(=O)O)C(=O)N23)cc1` (some centres not stated), the Potency is reported as inconclusive: 18.5 µM [inhibitor, single point]. In the case of `Cc1cccc(CSc2nnc3c(n2)[nH]c2ccccc23)c1`, the Potency is reported as active: 1.85 µM. With `Cc1cc(NC(=O)CCC(=O)N(Cc2ccco2)C(C)(C)C(=O)NC2CCCCC2)no1` the “activity change, negative = inhibition” value was inactive: -5.88%. With `c1ccc(-c2nnc(CN3CCN(C(c4ccccc4)c4ccccc4)CC3)o2)cc1` the Potency was active: 9.28 µM. In the case of `CC(/C=C/c1ccc2c(c1)OCO2)=N\NC(=O)C(O)c1ccccc1` (configuration not stated), the Potency is reported as inconclusive: 4.15 µM [inhibitor, partial curve, poor fit]. For `CC(C)NC(=O)C(OC(=O)c1ccccc1)C(OC(=O)c1ccccc1)C(=O)O` (configuration not stated), the Potency was inconclusive: 18.5 µM [inhibitor, single point].
